These results are taken from paper PMC6541591.

Chains of the proteins cited; added tags and fusions are not shown.
UniProt Q8N9U0: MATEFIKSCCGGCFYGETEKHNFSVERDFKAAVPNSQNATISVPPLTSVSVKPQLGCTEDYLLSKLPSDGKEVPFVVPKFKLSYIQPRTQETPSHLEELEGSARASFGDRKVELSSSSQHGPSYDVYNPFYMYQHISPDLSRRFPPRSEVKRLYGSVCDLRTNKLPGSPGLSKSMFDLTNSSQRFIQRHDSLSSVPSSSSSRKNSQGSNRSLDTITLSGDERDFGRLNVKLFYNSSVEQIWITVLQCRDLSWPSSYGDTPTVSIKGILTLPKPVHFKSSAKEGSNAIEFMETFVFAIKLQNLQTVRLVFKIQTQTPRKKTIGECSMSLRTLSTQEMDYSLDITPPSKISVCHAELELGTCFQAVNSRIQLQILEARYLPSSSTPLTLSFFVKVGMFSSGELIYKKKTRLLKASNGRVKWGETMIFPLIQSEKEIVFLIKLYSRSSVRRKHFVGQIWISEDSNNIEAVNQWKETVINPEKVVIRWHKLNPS

These are yes or no findings as the source states them, for the method shown. In cells and extracts the contact can be indirect. Here binding means that the protein was enriched with, or labelled near, the bait; the list need not be complete.

This experiment concerns the target TC2N (human) (UniProt Q8N9U0). The experiment is described as follows: affinity purification with mass spectrometry; lysates of TC2N-overexpressing MCF7 and MDA-MB-231 cells immunoprecipitated with Flag antibody, proteomic analysis (iTRAQ, NanoLC).

B1: EBP1 (protein, UniProt Q9UQ80 1-394)
chain: MSGEDEQQEQTIAEDLVVTKYKMGGDIANRVLRSLVEASSSGVSVLSLCEKGDAMIMEETGKIFKKEKEMKKGIAFPTSISVNNCVCHFSPLKSDQDYILKEGDLVKIDLGVHVDGFIANVAHTFVVDVAQGTQVTGRKADVIKAAHLCAEAALRLVKPGNQNTQVTEAWNKVAHSFNCTPIEGMLSHQLKQHVIDGEKTIIQNPTDQQKKDHEKAEFEVHEVYAVDVLVSSGEGKAKDAGQRTTIYKRDPSKQYGLKMKTSRAFFSEVERRFDAMPFTLRAFEDEKKARMGVVECAKHELLQPFNVLYEKEGEFVAQFKFTVLLMPNGPMRITSGPFEPDLYKSEMEVQDAELKALLQSSASRKTQKKKKKKASKTAENATSGETLEENEAGD
Take B1: the binding entry is given as “binds”.
